PMC11788927

Chains of the proteins cited; added tags and fusions are not shown.
UniProt O60293: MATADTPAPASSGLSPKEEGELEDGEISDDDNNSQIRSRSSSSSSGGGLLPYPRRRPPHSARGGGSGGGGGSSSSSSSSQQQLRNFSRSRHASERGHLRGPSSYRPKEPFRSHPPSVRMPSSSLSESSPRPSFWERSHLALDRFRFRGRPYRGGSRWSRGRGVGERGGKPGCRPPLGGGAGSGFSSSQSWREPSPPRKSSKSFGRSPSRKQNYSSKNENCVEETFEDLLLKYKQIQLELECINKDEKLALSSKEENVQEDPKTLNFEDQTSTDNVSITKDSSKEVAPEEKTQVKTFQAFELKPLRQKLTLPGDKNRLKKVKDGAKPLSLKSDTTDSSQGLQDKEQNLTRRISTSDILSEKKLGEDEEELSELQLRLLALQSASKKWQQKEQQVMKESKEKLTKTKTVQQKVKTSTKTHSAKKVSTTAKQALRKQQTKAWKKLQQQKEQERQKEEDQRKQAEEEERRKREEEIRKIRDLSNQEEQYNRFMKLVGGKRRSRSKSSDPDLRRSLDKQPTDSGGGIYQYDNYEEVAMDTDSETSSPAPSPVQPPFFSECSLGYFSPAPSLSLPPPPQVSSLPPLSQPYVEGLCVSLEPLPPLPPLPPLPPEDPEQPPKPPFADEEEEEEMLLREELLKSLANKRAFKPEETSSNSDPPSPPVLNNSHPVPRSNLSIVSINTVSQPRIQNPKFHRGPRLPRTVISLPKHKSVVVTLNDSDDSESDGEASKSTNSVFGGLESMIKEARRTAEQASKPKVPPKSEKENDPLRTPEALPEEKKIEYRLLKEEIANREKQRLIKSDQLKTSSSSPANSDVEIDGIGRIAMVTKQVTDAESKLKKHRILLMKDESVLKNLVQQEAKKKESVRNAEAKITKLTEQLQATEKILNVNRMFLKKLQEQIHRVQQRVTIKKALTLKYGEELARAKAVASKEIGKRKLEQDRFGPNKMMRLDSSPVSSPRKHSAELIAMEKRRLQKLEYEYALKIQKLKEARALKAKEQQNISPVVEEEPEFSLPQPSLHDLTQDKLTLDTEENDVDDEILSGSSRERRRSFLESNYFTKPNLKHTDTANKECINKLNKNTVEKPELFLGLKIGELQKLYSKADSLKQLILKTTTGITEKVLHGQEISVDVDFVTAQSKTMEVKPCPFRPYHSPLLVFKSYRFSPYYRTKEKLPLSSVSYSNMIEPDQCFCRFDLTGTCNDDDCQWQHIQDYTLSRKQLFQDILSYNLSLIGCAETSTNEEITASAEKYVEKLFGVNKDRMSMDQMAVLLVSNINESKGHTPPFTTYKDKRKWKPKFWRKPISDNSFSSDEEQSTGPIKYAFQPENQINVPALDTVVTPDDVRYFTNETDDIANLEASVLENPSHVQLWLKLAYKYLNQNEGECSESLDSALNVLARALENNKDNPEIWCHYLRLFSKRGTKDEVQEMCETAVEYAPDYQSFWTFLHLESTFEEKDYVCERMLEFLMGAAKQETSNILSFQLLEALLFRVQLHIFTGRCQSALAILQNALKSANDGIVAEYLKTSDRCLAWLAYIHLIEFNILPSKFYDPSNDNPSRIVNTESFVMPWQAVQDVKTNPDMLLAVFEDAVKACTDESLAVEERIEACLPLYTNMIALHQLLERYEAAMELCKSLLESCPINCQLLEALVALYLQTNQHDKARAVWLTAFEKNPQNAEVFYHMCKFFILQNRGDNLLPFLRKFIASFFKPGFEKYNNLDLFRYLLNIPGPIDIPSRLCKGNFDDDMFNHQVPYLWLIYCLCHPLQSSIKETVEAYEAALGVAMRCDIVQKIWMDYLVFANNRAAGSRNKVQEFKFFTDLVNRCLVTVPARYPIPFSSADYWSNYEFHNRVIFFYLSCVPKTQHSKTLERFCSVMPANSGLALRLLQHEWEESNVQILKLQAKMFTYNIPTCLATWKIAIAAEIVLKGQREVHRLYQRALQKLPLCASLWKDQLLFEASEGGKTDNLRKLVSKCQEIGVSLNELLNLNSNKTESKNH
UniProt O94913: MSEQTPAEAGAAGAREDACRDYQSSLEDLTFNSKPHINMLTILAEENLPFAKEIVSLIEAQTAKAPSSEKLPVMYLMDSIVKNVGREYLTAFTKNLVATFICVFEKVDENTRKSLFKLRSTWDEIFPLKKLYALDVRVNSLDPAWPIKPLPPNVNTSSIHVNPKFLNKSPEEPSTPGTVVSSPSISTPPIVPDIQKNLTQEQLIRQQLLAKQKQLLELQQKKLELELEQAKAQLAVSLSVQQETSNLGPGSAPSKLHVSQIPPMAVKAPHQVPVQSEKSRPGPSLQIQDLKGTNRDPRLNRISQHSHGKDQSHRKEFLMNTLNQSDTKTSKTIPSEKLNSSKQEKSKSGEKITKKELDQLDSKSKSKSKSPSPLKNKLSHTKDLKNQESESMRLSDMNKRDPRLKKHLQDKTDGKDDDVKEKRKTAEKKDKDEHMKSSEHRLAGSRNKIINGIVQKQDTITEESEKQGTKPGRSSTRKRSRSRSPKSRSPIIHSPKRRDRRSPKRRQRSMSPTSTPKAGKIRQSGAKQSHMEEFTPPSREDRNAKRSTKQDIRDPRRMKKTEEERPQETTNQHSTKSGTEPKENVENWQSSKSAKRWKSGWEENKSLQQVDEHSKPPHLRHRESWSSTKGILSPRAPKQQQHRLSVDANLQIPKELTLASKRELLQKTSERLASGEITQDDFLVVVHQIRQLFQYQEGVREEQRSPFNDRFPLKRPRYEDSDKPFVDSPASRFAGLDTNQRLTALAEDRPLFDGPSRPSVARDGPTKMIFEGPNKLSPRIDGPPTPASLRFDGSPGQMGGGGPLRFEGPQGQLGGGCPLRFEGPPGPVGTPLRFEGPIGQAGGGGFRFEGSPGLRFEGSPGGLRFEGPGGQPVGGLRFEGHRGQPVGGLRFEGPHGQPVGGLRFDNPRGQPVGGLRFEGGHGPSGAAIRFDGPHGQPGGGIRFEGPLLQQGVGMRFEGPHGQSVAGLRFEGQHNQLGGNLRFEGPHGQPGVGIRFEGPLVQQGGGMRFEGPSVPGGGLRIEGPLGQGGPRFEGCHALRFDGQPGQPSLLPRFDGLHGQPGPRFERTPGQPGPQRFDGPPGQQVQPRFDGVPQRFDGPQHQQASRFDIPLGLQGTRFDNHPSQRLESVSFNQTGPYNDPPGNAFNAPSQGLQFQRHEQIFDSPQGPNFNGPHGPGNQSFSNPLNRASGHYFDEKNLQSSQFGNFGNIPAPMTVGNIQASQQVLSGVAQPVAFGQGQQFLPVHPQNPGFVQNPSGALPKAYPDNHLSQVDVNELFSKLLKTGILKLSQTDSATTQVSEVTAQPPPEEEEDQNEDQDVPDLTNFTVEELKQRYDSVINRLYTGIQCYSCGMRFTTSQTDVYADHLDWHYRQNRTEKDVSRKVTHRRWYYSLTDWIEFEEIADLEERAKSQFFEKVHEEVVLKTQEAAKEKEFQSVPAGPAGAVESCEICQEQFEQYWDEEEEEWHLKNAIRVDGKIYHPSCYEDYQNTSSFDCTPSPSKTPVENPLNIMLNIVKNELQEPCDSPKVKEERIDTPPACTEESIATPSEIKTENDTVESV
UniProt P51003: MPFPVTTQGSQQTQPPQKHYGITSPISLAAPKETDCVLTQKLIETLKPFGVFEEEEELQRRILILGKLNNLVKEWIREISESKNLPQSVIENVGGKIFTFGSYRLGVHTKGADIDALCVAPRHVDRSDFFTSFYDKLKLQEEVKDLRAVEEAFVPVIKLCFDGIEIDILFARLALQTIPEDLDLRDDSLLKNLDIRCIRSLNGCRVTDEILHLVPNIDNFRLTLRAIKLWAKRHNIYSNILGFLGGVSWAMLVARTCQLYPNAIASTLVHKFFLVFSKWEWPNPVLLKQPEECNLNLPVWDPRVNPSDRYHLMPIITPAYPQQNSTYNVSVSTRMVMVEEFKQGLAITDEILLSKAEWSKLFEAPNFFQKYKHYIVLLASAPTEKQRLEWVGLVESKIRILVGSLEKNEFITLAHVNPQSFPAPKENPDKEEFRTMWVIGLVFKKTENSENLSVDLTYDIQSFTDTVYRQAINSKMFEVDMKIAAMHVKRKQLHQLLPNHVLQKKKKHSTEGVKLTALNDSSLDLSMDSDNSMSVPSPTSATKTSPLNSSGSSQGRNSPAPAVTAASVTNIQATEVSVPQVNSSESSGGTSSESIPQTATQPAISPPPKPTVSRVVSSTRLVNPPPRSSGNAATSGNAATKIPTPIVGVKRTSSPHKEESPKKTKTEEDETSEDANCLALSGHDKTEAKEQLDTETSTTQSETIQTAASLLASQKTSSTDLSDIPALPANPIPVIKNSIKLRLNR

Columns and labels:
Assay in all cases: proximity labelling; PDB-MS (BioID): BirA*-tagged bait in stable HEK 293-FT cells, 50 μm biotin for 24 h, Benzonase-treated lysate, streptavidin sepharose pull-down, LC-MS/MS, SAINT (Bayesian FDR ≤ 0.05, Log2 fold-change ≥ 1.0); also done in cells treated with PABPN1-specific, ZC3H14-specific or control siRNAs
BirA*-ZC3H14 (human) [1] = target: T1, BirA*-ZC3H14 (human) (UniProt Q6PJT7)
T1 sequence: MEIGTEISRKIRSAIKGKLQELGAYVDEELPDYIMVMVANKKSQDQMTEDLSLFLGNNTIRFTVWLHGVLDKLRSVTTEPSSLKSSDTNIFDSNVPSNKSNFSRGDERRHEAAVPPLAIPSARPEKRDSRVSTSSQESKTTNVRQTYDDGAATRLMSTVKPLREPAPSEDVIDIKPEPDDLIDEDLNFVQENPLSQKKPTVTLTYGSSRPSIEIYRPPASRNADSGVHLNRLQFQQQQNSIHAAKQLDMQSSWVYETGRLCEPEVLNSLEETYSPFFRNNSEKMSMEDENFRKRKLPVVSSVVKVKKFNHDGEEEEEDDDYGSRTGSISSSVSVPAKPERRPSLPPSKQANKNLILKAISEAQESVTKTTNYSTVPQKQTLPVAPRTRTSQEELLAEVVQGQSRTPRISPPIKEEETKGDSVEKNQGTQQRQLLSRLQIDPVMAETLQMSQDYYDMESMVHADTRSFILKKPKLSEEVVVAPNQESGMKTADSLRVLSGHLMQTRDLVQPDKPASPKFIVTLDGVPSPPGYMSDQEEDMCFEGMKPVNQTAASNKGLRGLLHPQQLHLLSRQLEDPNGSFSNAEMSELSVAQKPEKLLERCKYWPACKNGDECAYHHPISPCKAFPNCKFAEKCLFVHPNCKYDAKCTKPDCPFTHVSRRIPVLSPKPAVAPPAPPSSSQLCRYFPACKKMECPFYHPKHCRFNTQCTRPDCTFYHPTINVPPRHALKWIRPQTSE

BirA*-PABPN1 (human) [2] = target: T2, BirA*-PABPN1 (human) (UniProt Q86U42)
T2 sequence: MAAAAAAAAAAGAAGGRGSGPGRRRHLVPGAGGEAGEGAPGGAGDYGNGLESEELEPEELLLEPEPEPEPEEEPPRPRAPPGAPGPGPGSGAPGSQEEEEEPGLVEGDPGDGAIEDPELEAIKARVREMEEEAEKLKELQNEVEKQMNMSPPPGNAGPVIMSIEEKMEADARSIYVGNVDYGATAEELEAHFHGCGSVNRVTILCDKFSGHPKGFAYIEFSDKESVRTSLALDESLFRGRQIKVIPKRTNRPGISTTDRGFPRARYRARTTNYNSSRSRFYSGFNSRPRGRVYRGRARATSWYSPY

BirA*-ZC3H14 (human) [3] = target: T1, BirA*-ZC3H14 (human); remark: listed apart in the source
BirA*-PABPN1 (human) [4] = target: T2, BirA*-PABPN1 (human); remark: listed apart in the source

With ZFC3H1 (from UniProt O60293 1-1989) the binding (BirA*-ZC3H14 (human) [1]) was “binds”.

In the case of PCF11 (from UniProt O94913 1-1555), the binding (BirA*-ZC3H14 (human) [1]) is reported as “binds” and the binding (BirA*-PABPN1 (human) [2]) is reported as “binds”.

With “poly(A) polymerase alpha (PAPOLA) (from UniProt P51003 1-745) (enzyme)” the binding (BirA*-PABPN1 (human) [2]) was “binds”.

B1: ZC3H18 (protein, UniProt Q86VM9 1-953)
chain: MDVAESPERDPHSPEDEEQPQGLSDDDILRDSGSDQDLDGAGVRASDLEDEESAARGPSQEEEDNHSDEEDRASEPKSQDQDSEVNELSRGPTSSPCEEEGDEGEEDRTSDLRDEASSVTRELDEHELDYDEEVPEEPAPAVQEDEAEKAGAEDDEEKGEGTPREEGKAGVQSVGEKESLEAAKEKKKEDDDGEIDDGEIDDDDLEEGEVKDPSDRKVRPRPTCRFFMKGNCTWGMNCRFIHPGVNDKGNYSLITKADPFPPNGAPPLGPHPLMPANPWGGPVVDEILPPPPPEPPTESAWERGLRHAKEVLKKATIRKEQEPDFEEKRFTVTIGEDEREFDKENEVFRDWNSRIPRDVRDTVLEPYADPYYDYEIERFWRGGQYENFRVQYTETEPYHNYRERERERERENRQRERERERERDRERERRQRERERERERERDKERQRRKEEWERERAKRDEKDRQHRDRDREKEREKEKGKPKPRSPQPPSRQAEPPKKEAATTGPQVKRADEWKDPWRRSKSPKKKLGVSVSPSRARRRRKTSASSASASNSSRSSSRSSSYSGSGSSRSRSRSSSYSSYSSRSSRHSSFSGSRSRSRSFSSSPSPSPTPSPHRPSIRTKGEPAPPPGKAGEKSVKKPAPPPAPPQATKTTAPVPEPTKPGDPREARRKERPARTPPRRRTLSGSGSGSGSSYSGSSSRSRSLSVSSVSSVSSATSSSSSAHSVDSEDMYADLASPVSSASSRSPAPAQTRKEKGKSKKEDGVKEEKRKRDSSTQPPKSAKPPAGGKSSQQPSTPQQAPPGQPQQGTFVAHKEIKLTLLNKAADKGSRKRYEPSDKDRQSPPPAKRPNTSPDRGSRDRKSGGRLGSPKPERQRGQNSKAPAAPADRKRQLSPQSKSSSKVTSVPGKASDPGAASTKSGKASTLSRREELLKQLKAVEDAIARKRAKIPGKA
B1 was tested, and the binding (BirA*-ZC3H14 (human) [3]) was “binds” and the binding (BirA*-PABPN1 (human) [4]) was “binds”.

B2: RBM33 (protein, UniProt Q96EV2 1-1170)
chain: MAAALGASGGAGAGDDDFDQFDKPGAERSWRRRAADEDWDSELEDDLLGEDLLSGKKNQSDLSDEELNDDLLQSDNEDEENFSSQGVTISLNATSGMVTSFELSDNTNDQSGEQESEYEQEQGEDELVYHKSDGSELYTQEYPEEGQYEGHEAELTEDQIEYVEEPEEEQLYTDEVLDIEINEPLDEFTGGMETLELQKDIKEESDEEEEDDEESGRLRFKTERKEGTIIRLSDVTRERRNIPETLELSAEAKAALLEFEERERQHKQGRYSSRRGGRRGGPLMCRGVGDQRRESTERGRMKDHRPALLPTQPPVVPQAPPPPPPPPQQQPIRSLFQPQPLQPLLPVQHPHHPSPPQGMHMPPQLETPRMMMTPPPVTPQQPKNIHINPHFKGTVVTPVQVPLLPVPSQPRPAVGPQRFPGPPEFPQHTPGPVPNSFSQPPRLPLQDQWRAPPPPQDRDPFFLGVSGEPRFPSHLFLEQRSPPPPPPPPTLLNSSHPVPTQSPLPFTQPGPAFNQQGQQPVFPRERPVRPALQPPGPVGILHFSQPGSATTRPFIPPRQPFLPGPGQPFLPTHTQPNLQGPLHPPLPPPHQPQPQQPQQQPPPQHQPPHQPPHQPPPQHQPPPQHPPQHPPQHQHHHHHHHLSVPPPPLMPMSQPQFRPHVQTAQPQASSSRMQCPQRQGLRHNTTSQNVSKRPMQQMQPTAPRNSNLRELPIAPSHVIEMSSSRCSATPSAQVKPIVSASPPSRAVAGSRSSQGKTEVKVKPASPVAQPKEEAKTETEFPDEDEETRLYRLKIEEQKRLREEILKQKELRRQQQAGARKKELLERLAQQQQQLYAPPPPAEQEEQALSPSPTNGNPLLPFPGAQVRQNVKNRLLVKNQDVSISNVQPKTSNFVPSSANMQYQGQQMKALKHLRQTRTVPQSQTQPLHKVLPIKPADVEEPAVPQTPRVASIQGRPQDTKPGVKRTVTHRTNSGGGDGPHISSKVRVIKLSGGGGESDGFFHPEGQPQRLPQPPEVGPQPARKVTLTRGGLQQPPHLPAGPHAHSPVPPGIKSIQGIHPAKKAIMHGRGRGVAGPMGRGRLMPNKQNLRVVECKPQPCVVSVEGLSSSTTDAQLKSLLMSVGPIQSLQMLPQQRKAIAKFKEPAHALAFQQKFHRHMIDLSHINVALIVE
With B2 the binding (BirA*-ZC3H14 (human) [3]) was “binds” and the binding (BirA*-PABPN1 (human) [4]) was “binds”.

B3: RBM27 (protein, UniProt Q9P2N5 1-1060)
chain: MLIEDVDALKSWLAKLLEPICDADPSALANYVVALVKKDKPEKELKAFCADQLDVFLQKETSGFVDKLFESLYTKNYLPLLEPVKPEPKPLVQEKEEIKEEVFQEPAEEERDGRKKKYPSPQKTRSESSERRTREKKREDGKWRDYDRYYERNELYREKYDWRRGRSKSRSKSRGLSRSRSRSRGRSKDRDPNRNVEHRERSKFKSERNDLESSYVPVSAPPPNSSEQYSSGAQSIPSTVTVIAPAHHSENTTESWSNYYNNHSSSNSFGRNLPPKRRCRDYDERGFCVLGDLCQFDHGNDPLVVDEVALPSMIPFPPPPPGLPPPPPPGMLMPPMPGPGPGPGPGPGPGPGPGPGPGHSMRLPVPQGHGQPPPSVVLPIPRPPITQSSLINSRDQPGTSAVPNLASVGTRLPPPLPQNLLYTVSERQPMYSREHGAAASERLQLGTPPPLLAARLVPPRNLMGSSIGYHTSVSSPTPLVPDTYEPDGYNPEAPSITSSGRSQYRQFFSRTQTQRPNLIGLTSGDMDVNPRAANIVIQTEPPVPVSINSNITRVVLEPDSRKRAMSGLEGPLTKKPWLGKQGNNNQNKPGFLRKNQYTNTKLEVKKIPQELNNITKLNEHFSKFGTIVNIQVAFKGDPEAALIQYLTNEEARKAISSTEAVLNNRFIRVLWHRENNEQPTLQSSAQLLLQQQQTLSHLSQQHHHLPQHLHQQQVLVAQSAPSTVHGGIQKMMSKPQTSGAYVLNKVPVKHRLGHAGGNQSDASHLLNQSGGAGEDCQIFSTPGHPKMIYSSSNLKTPSKLCSGSKSHDVQEVLKKKQEAMKLQQDMRKKRQEVLEKQIECQKMLISKLEKNKNMKPEERANIMKTLKELGEKISQLKDELKTSSAVSTPSKVKTKTEAQKELLDTELDLHKRLSSGEDTTELRKKLSQLQVEAARLGILPVGRGKTMSSQGRGRGRGRGGRGRGSLNHMVVDHRPKALTVGGFIEEEKEDLLQHFSTANQGPKFKDRRLQISWHKPKVPSISTETEEEEVKEEETETSDLFLPDDDDEDEDEYESRSWRR
With B3 the binding (BirA*-ZC3H14 (human) [3]) was “binds” and the binding (BirA*-PABPN1 (human) [4]) was “binds”.

Where two headings read alike, the source gives them in different places. Results are given in words; binding and its absence hold for the method and conditions named. Binding seen in cells or lysates may run through a third protein. These calls come from enrichment with a bait or labelling near it, and not all partners need be listed.
